Assay results published in the supplement of paper PMC10849652.
This is one part of the list. Residues, ends and D or L forms follow the SMILES beside them. *: point of attachment. Cbz = O=C(OCc1ccccc1)*

Sequences of proteins named here, by UniProt entry; tags and fusion partners are left off. A change or cut given only in a name is not applied to a line headed by its entry.
UniProt Q5TA50: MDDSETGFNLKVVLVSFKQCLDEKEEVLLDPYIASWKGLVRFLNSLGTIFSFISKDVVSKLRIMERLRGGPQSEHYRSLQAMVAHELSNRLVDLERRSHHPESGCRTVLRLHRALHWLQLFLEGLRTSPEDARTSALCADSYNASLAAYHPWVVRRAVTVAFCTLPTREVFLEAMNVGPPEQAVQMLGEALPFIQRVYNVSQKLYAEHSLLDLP
UniProt Q6UUV7: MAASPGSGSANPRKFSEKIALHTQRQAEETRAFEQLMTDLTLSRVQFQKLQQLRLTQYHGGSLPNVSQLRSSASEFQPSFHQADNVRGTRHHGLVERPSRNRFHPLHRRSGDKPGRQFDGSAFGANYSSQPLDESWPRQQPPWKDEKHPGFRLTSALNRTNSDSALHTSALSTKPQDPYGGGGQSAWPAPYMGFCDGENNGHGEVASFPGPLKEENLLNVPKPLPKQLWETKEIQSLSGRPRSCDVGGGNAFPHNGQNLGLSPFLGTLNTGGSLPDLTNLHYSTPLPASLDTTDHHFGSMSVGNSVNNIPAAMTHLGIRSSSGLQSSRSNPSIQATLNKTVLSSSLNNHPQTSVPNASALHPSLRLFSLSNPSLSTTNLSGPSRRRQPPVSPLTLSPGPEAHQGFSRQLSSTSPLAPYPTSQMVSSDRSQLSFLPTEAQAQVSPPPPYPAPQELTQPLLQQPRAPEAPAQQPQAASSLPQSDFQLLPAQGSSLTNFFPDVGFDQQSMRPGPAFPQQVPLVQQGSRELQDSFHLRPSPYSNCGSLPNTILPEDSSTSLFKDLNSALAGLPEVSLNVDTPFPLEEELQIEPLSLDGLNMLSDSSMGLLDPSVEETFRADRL
UniProt Q2VPA4, whole entry, looked up: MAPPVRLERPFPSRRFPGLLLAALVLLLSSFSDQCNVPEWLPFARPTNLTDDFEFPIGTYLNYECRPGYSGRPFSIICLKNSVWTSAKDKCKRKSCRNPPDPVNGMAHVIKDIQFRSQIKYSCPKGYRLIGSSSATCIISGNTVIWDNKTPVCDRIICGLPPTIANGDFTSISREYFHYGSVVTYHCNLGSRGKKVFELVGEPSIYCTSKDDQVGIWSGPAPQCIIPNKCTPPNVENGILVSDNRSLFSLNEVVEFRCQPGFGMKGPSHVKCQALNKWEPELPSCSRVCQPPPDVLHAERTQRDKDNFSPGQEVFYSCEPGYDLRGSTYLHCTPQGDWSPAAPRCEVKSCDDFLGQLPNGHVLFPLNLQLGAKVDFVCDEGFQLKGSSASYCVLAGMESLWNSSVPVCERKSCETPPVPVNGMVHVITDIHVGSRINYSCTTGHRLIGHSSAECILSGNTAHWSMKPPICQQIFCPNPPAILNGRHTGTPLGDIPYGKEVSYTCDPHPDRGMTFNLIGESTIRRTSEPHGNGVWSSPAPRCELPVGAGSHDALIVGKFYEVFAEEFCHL
UniProt Q9UJA2: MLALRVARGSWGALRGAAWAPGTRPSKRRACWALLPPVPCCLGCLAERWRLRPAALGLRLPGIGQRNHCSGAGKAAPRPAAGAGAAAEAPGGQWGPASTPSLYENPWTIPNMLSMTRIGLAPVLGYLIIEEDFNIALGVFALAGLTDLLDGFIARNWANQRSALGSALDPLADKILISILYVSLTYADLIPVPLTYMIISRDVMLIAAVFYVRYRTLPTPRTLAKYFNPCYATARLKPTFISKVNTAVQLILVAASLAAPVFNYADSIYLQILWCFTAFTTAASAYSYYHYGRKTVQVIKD
UniProt O95639, whole entry, looked up: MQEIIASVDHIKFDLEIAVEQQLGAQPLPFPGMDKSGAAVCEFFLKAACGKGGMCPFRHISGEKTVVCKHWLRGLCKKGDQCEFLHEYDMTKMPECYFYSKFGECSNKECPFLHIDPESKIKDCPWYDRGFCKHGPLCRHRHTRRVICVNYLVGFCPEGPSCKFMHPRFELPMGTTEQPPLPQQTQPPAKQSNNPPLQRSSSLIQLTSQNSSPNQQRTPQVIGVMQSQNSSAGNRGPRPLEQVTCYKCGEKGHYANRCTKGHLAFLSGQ
UniProt P53674: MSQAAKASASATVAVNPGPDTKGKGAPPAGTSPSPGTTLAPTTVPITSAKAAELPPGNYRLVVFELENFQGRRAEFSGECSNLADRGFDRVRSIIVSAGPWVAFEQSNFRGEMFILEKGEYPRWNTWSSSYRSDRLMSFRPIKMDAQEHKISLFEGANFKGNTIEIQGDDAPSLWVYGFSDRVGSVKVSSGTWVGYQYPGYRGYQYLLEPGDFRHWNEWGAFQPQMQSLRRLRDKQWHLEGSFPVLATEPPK
UniProt Q9UNS2: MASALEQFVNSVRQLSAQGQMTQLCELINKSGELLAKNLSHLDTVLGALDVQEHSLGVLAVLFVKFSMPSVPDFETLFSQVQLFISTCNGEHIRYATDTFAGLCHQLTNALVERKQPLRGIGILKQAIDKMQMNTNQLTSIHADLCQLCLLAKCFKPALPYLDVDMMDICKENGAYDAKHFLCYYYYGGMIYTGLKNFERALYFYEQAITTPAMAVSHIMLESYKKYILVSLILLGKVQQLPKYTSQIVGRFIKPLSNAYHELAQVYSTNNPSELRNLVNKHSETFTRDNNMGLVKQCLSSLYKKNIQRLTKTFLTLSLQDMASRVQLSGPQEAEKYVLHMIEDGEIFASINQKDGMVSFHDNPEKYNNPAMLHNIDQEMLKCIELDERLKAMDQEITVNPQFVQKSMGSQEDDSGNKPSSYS
UniProt Q86T23: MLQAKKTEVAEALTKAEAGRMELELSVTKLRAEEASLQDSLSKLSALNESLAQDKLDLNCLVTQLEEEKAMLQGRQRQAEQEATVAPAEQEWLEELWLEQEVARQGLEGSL
UniProt Q9BXS0: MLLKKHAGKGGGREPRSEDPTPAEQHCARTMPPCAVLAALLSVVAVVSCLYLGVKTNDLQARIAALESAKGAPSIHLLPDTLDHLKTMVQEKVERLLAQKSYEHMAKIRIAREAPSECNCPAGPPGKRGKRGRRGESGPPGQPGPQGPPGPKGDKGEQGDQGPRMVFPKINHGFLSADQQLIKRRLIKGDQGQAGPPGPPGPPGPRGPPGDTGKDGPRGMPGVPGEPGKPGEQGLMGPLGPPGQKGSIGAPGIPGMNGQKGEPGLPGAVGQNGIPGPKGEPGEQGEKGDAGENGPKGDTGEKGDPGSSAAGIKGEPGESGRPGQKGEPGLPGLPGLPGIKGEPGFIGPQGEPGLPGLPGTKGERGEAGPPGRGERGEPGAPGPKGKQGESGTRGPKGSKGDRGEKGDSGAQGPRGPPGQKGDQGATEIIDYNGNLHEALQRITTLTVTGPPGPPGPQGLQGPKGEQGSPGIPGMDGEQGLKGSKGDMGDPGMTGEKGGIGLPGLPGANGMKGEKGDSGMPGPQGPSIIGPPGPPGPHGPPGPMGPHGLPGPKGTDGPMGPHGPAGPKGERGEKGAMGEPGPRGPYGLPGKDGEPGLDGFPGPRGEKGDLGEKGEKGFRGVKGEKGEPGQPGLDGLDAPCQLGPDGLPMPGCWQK
UniProt Q9UI42: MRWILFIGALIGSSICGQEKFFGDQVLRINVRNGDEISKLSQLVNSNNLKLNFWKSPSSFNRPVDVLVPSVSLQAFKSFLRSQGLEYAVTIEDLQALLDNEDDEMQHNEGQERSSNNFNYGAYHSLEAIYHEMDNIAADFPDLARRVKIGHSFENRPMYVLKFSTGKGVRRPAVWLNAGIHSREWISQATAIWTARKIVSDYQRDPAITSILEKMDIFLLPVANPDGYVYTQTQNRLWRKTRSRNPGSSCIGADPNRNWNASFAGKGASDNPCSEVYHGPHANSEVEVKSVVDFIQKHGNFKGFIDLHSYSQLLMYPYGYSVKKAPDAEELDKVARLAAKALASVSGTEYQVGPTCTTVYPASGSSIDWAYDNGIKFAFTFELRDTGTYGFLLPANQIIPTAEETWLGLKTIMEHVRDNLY
UniProt Q9UBG3: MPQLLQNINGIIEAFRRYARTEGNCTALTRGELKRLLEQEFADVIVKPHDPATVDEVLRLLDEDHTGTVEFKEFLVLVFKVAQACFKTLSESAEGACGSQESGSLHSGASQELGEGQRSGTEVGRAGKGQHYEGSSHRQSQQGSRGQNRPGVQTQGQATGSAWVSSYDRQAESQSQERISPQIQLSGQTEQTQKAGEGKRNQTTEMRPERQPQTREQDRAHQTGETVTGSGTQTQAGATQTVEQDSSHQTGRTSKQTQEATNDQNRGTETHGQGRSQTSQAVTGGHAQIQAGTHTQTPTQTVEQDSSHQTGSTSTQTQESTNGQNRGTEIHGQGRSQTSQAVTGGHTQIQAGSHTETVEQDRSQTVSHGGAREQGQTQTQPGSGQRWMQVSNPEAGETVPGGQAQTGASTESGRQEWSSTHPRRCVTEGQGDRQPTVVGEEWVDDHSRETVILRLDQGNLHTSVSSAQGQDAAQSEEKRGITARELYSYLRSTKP
UniProt Q49AN0: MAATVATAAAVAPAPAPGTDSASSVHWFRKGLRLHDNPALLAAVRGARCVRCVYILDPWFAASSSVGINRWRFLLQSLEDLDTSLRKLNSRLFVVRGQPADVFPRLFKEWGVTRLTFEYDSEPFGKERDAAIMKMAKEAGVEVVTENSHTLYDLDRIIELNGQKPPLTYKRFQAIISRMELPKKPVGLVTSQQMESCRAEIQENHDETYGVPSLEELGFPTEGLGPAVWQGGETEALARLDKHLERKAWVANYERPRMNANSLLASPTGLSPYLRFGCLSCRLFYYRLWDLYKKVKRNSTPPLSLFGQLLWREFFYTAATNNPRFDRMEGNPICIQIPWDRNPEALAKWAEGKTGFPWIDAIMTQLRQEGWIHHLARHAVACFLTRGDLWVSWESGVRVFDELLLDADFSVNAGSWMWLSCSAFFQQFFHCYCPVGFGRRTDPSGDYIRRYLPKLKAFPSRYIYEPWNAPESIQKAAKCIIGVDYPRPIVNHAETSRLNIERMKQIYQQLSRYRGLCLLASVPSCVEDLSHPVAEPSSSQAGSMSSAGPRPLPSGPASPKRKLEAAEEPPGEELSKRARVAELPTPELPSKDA
UniProt Q7Z4G1, whole entry, looked up: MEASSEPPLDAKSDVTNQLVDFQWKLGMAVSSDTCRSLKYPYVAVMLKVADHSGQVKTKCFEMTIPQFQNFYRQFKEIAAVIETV
UniProt P02511: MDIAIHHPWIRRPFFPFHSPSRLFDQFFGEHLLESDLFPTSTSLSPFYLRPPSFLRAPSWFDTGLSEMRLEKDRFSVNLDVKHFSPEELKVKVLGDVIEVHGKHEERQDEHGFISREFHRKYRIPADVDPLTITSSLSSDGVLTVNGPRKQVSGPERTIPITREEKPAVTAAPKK
UniProt Q9UBI1, whole entry, looked up: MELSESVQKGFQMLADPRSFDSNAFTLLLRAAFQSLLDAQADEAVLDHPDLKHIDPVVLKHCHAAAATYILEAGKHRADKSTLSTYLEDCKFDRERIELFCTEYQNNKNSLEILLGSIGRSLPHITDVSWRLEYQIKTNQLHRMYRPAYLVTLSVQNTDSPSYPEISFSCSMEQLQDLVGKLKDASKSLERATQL
UniProt P54108: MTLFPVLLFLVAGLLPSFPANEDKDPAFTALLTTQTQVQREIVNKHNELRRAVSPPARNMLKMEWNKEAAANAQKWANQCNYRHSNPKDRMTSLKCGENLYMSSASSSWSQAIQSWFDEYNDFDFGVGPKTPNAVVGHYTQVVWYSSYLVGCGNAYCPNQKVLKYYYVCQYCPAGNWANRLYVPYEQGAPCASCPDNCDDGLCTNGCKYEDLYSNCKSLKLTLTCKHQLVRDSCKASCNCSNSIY
UniProt Q96I36: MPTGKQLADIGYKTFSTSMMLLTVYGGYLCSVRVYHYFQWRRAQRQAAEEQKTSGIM
UniProt O75575: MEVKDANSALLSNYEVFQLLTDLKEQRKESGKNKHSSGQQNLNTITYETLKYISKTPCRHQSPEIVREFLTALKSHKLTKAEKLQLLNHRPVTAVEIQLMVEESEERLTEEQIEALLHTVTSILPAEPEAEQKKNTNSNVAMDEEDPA
UniProt Q8NHY2, whole entry, looked up: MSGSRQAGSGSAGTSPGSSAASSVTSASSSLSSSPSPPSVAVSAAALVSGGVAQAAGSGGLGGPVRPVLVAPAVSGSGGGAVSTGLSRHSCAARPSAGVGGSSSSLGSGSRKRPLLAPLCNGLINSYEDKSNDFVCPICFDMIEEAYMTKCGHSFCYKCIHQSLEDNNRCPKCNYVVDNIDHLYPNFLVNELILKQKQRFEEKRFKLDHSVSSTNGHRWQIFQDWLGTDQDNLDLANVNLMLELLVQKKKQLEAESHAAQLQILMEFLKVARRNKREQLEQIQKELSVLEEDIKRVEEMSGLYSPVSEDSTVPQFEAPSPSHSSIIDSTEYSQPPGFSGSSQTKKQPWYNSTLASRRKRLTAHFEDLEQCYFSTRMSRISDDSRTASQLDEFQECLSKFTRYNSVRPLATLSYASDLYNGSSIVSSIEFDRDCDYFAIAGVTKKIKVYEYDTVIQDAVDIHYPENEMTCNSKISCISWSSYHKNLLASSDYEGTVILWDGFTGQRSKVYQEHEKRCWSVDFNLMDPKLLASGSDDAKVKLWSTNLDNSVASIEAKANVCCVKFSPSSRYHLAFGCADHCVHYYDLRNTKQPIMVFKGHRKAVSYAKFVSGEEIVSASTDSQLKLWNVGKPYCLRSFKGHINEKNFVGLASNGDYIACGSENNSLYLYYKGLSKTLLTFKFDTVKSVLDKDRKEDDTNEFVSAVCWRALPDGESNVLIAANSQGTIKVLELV

What was measured:
Assay in all cases: log2 fold change, soluble protein after heating vs DMSO (PISA); higher = thermal stabilisation; K562 cells, 10 uM, 30 min; active = over 0.2 and 3.5 SD of the protein, either way, in both replicates (recomputed)
erlotinib = compound: C#Cc1cccc(Nc2ncnc3cc(OCCOC)c(OCCOC)cc23)c1 [erlotinib]
How it was run: (§1)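 Values are thermal stability changes relative to control samples and are taken from duplicates. They are stated as log2 fold changes. Before quantification by TMTpro 16plex LC-MS/MS with equalised channel sums, K562 cells at 2×10^6 cells/mL were treated with 10 μM compound for 30 min, heated in aliquots for 3 min across 48°C-58°C, pooled, extracted in PBS with 0.5% NP-40 at 4°C, and centrifuged at 21,000xg for 90 min to give the soluble supernatant.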

[1] = compound: C1=CC(=CC=C1C2=NC3=C(N2)C=C(C=C3)C(=O)N)OC4=CC=C(C=C4)Cl
How it was run: as §1

[2] = compound: C1=CC=C(C=C1)C2=NC(=C(N2)C3=CC=NC=C3)C4=CC(=C(C=C4)Cl)O
How it was run: as §1

IRAK-1-4 Inhibitor I = compound: C1COCCN1CCN2C3=CC=CC=C3N=C2NC(=O)C4=CC(=CC=C4)[N+](=O)[O-] [IRAK-1-4 Inhibitor I]
How it was run: as §1

ralimetinib = compound: CC(C)(C)Cn1c(N)nc2ccc(-c3[nH]c(C(C)(C)C)nc3-c3ccc(F)cc3)nc21 [ralimetinib]
How it was run: as §1

[3] = compound: CC(C)C1=C2N=C(C=C(N2N=C1)NCC3=CC=CC=C3)NCCCCCCN
How it was run: as §1

[4] = compound: CC(C)C[C@@H](C=O)NC(=O)[C@H](CC(C)C)NC(=O)[C@H](CC(C)C)NC(=O)OCc1ccccc1
How it was run: as §1

pinometostat = compound: CC(C)N(C[C@H]1O[C@@H](n2cnc3c(N)ncnc32)[C@H](O)[C@@H]1O)[C@H]1C[C@@H](CCc2nc3cc(C(C)(C)C)ccc3[nH]2)C1 [pinometostat]
How it was run: as §1

[5] = compound: C1=CC2=NC=CN=C2C=C1/C=C/3\C(=O)NC(=O)S3
How it was run: as §1

ibrutinib = compound: C=CC(=O)N1CCC[C@@H](n2nc(-c3ccc(Oc4ccccc4)cc3)c3c(N)ncnc32)C1 [ibrutinib]
How it was run: as §1

[6] = compound: C1=CC(=C(C=C1Cl)C2=NC3=NC=CN=C3C(=N2)NC4=CC=NC=C4)F
How it was run: as §1

[7] = compound: C1CCN(C1)C(=O)NC2=CC=CC(=C2)NC3=NC=C(C(=N3)NCCC4=CN=CN4)Br
How it was run: as §1

[8] = compound: C1CN(CCC1(CC2=CC=C(C=C2)Cl)N)C3=NC=NC4=C3C=CN4
How it was run: as §1

[9] = compound: CC(C)(O)CC(=O)NCCn1ccc2ncnc(Nc3ccc(Oc4cccc(C(F)(F)F)c4)c(Cl)c3)c21
How it was run: as §1

[10] = compound: CC1=C(C2=C(C=C1)C(=O)C3=CC=CC=C3N2CCCN)C
How it was run: as §1

[11] = compound: C/C(=N\NC(=O)C1=CC(=CC=C1)S(=O)(=O)N2CCOCC2)/C3=C(C=CC(=C3)Cl)O
How it was run: as §1

[12] = compound: C1=CC2=C(C=CC(=C2)/C=C\3/C(=O)NC(=NCC4=CC=CS4)S3)N=C1
How it was run: as §1

[13] = compound: C1=CC=C2C(=C1)C3=NNC4=CC=CC(=C43)C2=O
How it was run: as §1

[14] = compound: CC(=O)c1cnc2ccc(-c3cc(Cl)c(O)c(Cl)c3)nc2c1N[C@H]1CC[C@H](CN(C)C)CC1
How it was run: as §1

[15] = compound: CC1=C(C(CC(=O)N1)C2=CC=C(C=C2)C(F)(F)F)C(=O)NC3=C(C=C4C(=C3)C=NN4)F
How it was run: as §1

Measured: log2 fold change

CPTP (UniProt Q5TA50)
inactive: erlotinib 0.181 | [1] -0.181 | [2] -0.168 | IRAK-1-4 Inhibitor I -0.026 | ralimetinib 0.018 | [3] -0.075 | [4] -0.319 | pinometostat 0.088

CS (UniProt F8VU34)
inactive: [5] 0.06 | ibrutinib -0.137

CRTC3 (UniProt Q6UUV7)
inactive: [6] 0.04 | [5] 0.094 | [2] -0.146 | [7] 0.02 | [8] 0.075 | ibrutinib -0.035 | ralimetinib 0.048 | [9] -0.104 | [4] 0.042 | [10] 0

CR1L (UniProt Q2VPA4)
inactive: erlotinib -0.089 | [1] 0.085 | [3] 0.074

CRLS1 (UniProt Q9UJA2)
inactive: erlotinib -0.034 | [1] 0.019 | [7] -0.019 | [8] 0.074 | IRAK-1-4 Inhibitor I -0.03 | [3] 0.036 | pinometostat -0.071 | [10] -0.005

CPSF4 (UniProt O95639)
inactive: [11] 0.006 | [12] -0.11 | [5] 0.135 | [2] 0.217 | [13] -0.146 | ibrutinib -0.082 | [14] -0.471 | ralimetinib 0.353 | [4] -0.036 | [15] 0.109

COQ10B (UniProt Q9H8M1)
inactive: [6] 0.023 | [5] 0.03 | [2] -0.167 | IRAK-1-4 Inhibitor I -0.068 | ibrutinib 0.2 | ralimetinib -0.042 | [9] -0.149 | [4] 0.326 | pinometostat 0.091

CRYBB1 (UniProt P53674)
inactive: erlotinib 0.227 | [6] -0.033 | [1] -0.083 | IRAK-1-4 Inhibitor I 0.193 | [9] 0 | [3] 0.173 | pinometostat -0.25

CRYM (UniProt Q14894)
inactive: erlotinib 0.028 | [6] 0.069 | [1] -0.027 | [7] 0.119 | [8] 0.233 | [9] -0.285 | [3] 0.081 | [10] 0.11

COPS3 isoform 2 (UniProt Q9UNS2)
inactive: [11] -0.24 | [6] -0.075 | [12] 0.214 | [5] -0.125 | [2] -0.568 | [13] -0.126 | [7] 0.176 | [8] -0.052 | IRAK-1-4 Inhibitor I 0.098 | ibrutinib -0.015 | [14] -0.191 | ralimetinib -0.214 | [9] -0.097 | [4] 0.258 | pinometostat 0.071 | [10] 0.053

CRY1 (UniProt Q16526)
inactive: [6] -0.033 | [2] 0.012 | ralimetinib 0.023 | [9] -0.083 | [4] 0.051 | [15] -0.107

CROCCP2 (UniProt Q86T23)
inactive: erlotinib 0.054 | [1] -0.135 | [5] 0.079 | [2] 0.068 | ibrutinib 0.043 | ralimetinib 0.091 | [3] 0.43 | [4] 0.009

COL25A1 (UniProt Q9BXS0)
inactive: erlotinib -0.211 | [6] 0.301 | [1] 0.19 | [5] -0.178 | ibrutinib 0.062 | [9] -0.279 | [3] -0.068

CPN1 (UniProt P15169)
inactive: erlotinib -0.161 | [1] 0.064 | [5] 0.081 | [2] -0.035 | [7] -0.007 | [8] -0.11 | ibrutinib -0.215 | ralimetinib 0.042 | [3] -0.037 | [4] 0.019 | [10] -0.083

CORO6 isoform 5 (UniProt Q6QEF8)
inactive: [11] 0.001 | [6] 0.027 | [12] 0.124 | [13] 0.295 | [7] -0.242 | [8] -0.018 | IRAK-1-4 Inhibitor I -0.031 | [14] -0.022 | [9] -0.044 | pinometostat 0.074 | [10] 0.003

COL3A1 (UniProt P02461)
inactive: erlotinib -0.022 | [6] 0.019 | [1] -0.012 | [2] -0.001 | [7] -0.044 | [8] 0.21 | IRAK-1-4 Inhibitor I 0.088 | ralimetinib -0.216 | [9] 0.011 | [3] 0.16 | [4] 0.142 | pinometostat 0.001 | [10] 0.019

CPA4 (UniProt Q9UI42)
inactive: [11] -0.164 | [12] 0.141 | [13] -0.391 | [7] -0.224 | [8] 0.054 | [14] -0.117 | [10] 0.615

CRNN (UniProt Q9UBG3)
inactive: erlotinib 0.508 | [1] -1 | [5] -0.479 | ibrutinib 0.049 | [3] -0.844

CRY2 (UniProt Q49AN0)
inactive: [11] 0.001 | [12] 0.144 | [5] 0.172 | [13] -0.051 | [7] 0.058 | [8] -0.11 | ibrutinib -0.07 | [14] 0.035 | [15] -0.094 | [10] -0.012

CSNK1A1 isoform 3 (UniProt P48729)
inactive: [5] 0.111 | ibrutinib 0.029

COMMD3-BMI1 (UniProt R4GMX3)
inactive: [11] -0.043 | [6] -0.051 | [12] 0.077 | [13] -0.169 | [7] -0.191 | [8] 0.095 | [14] 0.055 | [9] -0.003 | [10] -0.071

CRABP2 (UniProt P29373)
inactive: [6] -0.158 | [9] 0

COMMD6 isoform 2 (UniProt Q7Z4G1)
inactive: erlotinib -0.028 | [6] 0.073 | [1] -0.037 | [9] -0.077 | [3] 0.13

COL6A3 (UniProt P12111)
inactive: erlotinib 0.099 | [6] -0.008 | [1] -0.141 | [9] 0.218 | [3] 0.017

CRYAB (UniProt P02511)
inactive: [11] -0.03 | [6] -0.081 | [12] 0.159 | [13] 0.077 | IRAK-1-4 Inhibitor I -0.305 | [14] -0.031 | [9] -0.31 | pinometostat 0.136

CSNK1G2 (UniProt P78368)
inactive: [11] -0.164 | [6] -0.112 | [12] -0.093 | [13] 0.004 | [7] -0.125 | [8] 0.066 | IRAK-1-4 Inhibitor I -0.309 | [14] 0.087 | [9] 0.047 | pinometostat 0.086 | [15] 0.017 | [10] -0.026

CSGALNACT2 (UniProt Q8N6G5)
inactive: [11] 0.294 | [6] 0.073 | [12] -0.086 | [5] -0.052 | [13] 0.097 | IRAK-1-4 Inhibitor I 0.078 | ibrutinib -0.071 | [14] 0.036 | [9] -0.128 | pinometostat 0.009 | [15] 0.101

Copied from the results shown (10 entries):
COL3A1 (UniProt P02461)
inactive: erlotinib -0.022 | [6] 0.019 | [1] -0.012 | [2] -0.001 | [7] -0.044 | [8] 0.21 | IRAK-1-4 Inhibitor I 0.088 | ralimetinib -0.216 | [9] 0.011 | [3] 0.16 | [4] 0.142 | pinometostat 0.001 | [10] 0.019

CPA4 (UniProt Q9UI42)
inactive: [11] -0.164 | [12] 0.141 | [13] -0.391 | [7] -0.224 | [8] 0.054 | [14] -0.117 | [10] 0.615

CRNN (UniProt Q9UBG3)
inactive: erlotinib 0.508 | [1] -1 | [5] -0.479 | ibrutinib 0.049 | [3] -0.844

CRY2 (UniProt Q49AN0)
inactive: [11] 0.001 | [12] 0.144 | [5] 0.172 | [13] -0.051 | [7] 0.058 | [8] -0.11 | ibrutinib -0.07 | [14] 0.035 | [15] -0.094 | [10] -0.012

CSNK1A1 isoform 3 (UniProt P48729)
inactive: [5] 0.111 | ibrutinib 0.029

COMMD3-BMI1 (UniProt R4GMX3)
inactive: [11] -0.043 | [6] -0.051 | [12] 0.077 | [13] -0.169 | [7] -0.191 | [8] 0.095 | [14] 0.055 | [9] -0.003 | [10] -0.071

CRABP2 (UniProt P29373)
inactive: [6] -0.158 | [9] 0

COMMD6 isoform 2 (UniProt Q7Z4G1)
inactive: erlotinib -0.028 | [6] 0.073 | [1] -0.037 | [9] -0.077 | [3] 0.13

COL6A3 (UniProt P12111)
inactive: erlotinib 0.099 | [6] -0.008 | [1] -0.141 | [9] 0.218 | [3] 0.017

CRYAB (UniProt P02511)
inactive: [11] -0.03 | [6] -0.081 | [12] 0.159 | [13] 0.077 | IRAK-1-4 Inhibitor I -0.305 | [14] -0.031 | [9] -0.31 | pinometostat 0.136

More entries.

COQ4 (UniProt Q9Y3A0)
inactive: [2] 0.261 | ralimetinib -0.28 | [4] 0.283

COLEC11 isoform 10 (UniProt Q9BWP8)
inactive: [11] -0.077 | [6] -0.058 | [12] 0.11 | [5] 0.047 | [13] -0.038 | IRAK-1-4 Inhibitor I 0.194 | ibrutinib -0.013 | [14] -0.032 | [9] -0.15 | pinometostat -0.072 | [15] 0.005

COMMD3 (UniProt Q9UBI1)
inactive: [11] 0.054 | [12] 0.18 | [5] 0.102 | [2] 0.058 | [13] -0.097 | [7] -0.085 | [8] -0.002 | IRAK-1-4 Inhibitor I -0.065 | ibrutinib -0.086 | [14] -0.055 | ralimetinib 0.121 | [4] -0.058 | pinometostat 0 | [15] 0.038 | [10] 0.11

CRISP3 isoform 3 (UniProt P54108)
inactive: [5] -0.198 | ibrutinib 0.336

COX14 (UniProt Q96I36)
inactive: erlotinib -0.044 | [6] 0.219 | [1] 0.037 | [5] 0 | IRAK-1-4 Inhibitor I -0.077 | ibrutinib 0.051 | [9] -0.06 | [3] 0.138 | pinometostat 0.072 | [15] -0.007

CRCP (UniProt O75575)
inactive: [6] -0.148 | [5] 0.066 | [7] 0.007 | [8] 0.027 | IRAK-1-4 Inhibitor I -0.018 | ibrutinib -0.024 | [9] -0.115 | pinometostat 0.008 | [15] 0.009 | [10] -0.075

COP1 (UniProt Q8NHY2)
inactive: [11] 0.13 | [12] -0.213 | [2] -0.003 | [13] -0.246 | [14] -0.059 | ralimetinib -0.119 | [4] 0.08
